US6617118B2, “Monoclonal antibody for analysis and clearance of polyethylene glycol and polyethylene glycol-modified molecules” (priority 1999, dated 2003)

Test system: immobilized AGP3
Assay: AGP3 sandwich ELISA (AGP3 capture, AGP3-biotin detection)
Format: binding

B1: βG-pPEG: β-glucuronidase modified with pPEG (conjugate, UniProt P05804 1-603, looked up)
Beta-glucuronidase: MLRPVETPTREIKKLDGLWAFSLDRENCGIDQRWWESALQESRAIAVPGSFNDQFADADIRNYAGNVWYQREVFIPKGWAGQRIVLRFDAVTHYGKVWVNNQEVMEHQGGYTPFEADVTPYVIAGKSVRITVCVNNELNWQTIPPGMVITDENGKKKQSYFHDFFNYAGIHRSVMLYTTPNTWVDDITVVTHVAQDCNHASVDWQVVANGDVSVELRDADQQVVATGQGTSGTLQVVNPHLWQPGEGYLYELCVTAKSQTECDIYPLRVGIRSVAVKGEQFLINHKPFYFTGFGRHEDADLRGKGFDNVLMVHDHALMDWIGANSYRTSHYPYAEEMLDWADEHGIVVIDETAAVGFNLSLGIGFEAGNKPKELYSEEAVNGETQQAHLQAIKELIARDKNHPSVVMWSIANEPDTRPQGAREYFAPLAEATRKLDPTRPITCVNVMFCDAHTDTISDLFDVLCLNRYYGWYVQSGDLETAEKVLEKELLAWQEKLHQPIIITEYGVDTLAGLHSMYTDMWSEEYQCAWLDMYHRVFDRVSAVVGEQVWNFADFATSQGILRVGGNKKGIFTRDRKPKSAAFLLQKRWTGMNFGEKPQQGGKQ
modifications: pPEG modified
- amount of PEG corresponding to lowest detected concentration: 500 µg
- amount of βG-pPEG corresponding to lowest detected concentration: 2.6 fmol
- lowest concentration detected by the assay (in PBS): ≤ 15 mg/mL
